Reference: article PMC5453112
Results are given in words; binding and its absence hold for the method and conditions named. Binding seen in cells or lysates may run through a third protein. Binding calls can cover weak binding; strength is not graded here.

By UniProt entry, the sequences of proteins in these tests, tags left out. Where a name states a change or a piece, a line headed by the entry shows the natural chain unless it says otherwise.
UniProt Q4QD01: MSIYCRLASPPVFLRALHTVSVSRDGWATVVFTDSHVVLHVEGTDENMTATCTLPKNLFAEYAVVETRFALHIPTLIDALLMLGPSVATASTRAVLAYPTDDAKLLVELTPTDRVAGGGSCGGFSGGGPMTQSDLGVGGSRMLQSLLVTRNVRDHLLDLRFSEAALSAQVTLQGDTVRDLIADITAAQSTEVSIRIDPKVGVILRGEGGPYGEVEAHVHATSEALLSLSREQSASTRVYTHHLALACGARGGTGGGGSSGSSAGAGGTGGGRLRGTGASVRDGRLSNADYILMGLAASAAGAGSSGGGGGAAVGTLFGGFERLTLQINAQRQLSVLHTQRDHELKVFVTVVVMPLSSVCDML
UniProt Q4QBE5: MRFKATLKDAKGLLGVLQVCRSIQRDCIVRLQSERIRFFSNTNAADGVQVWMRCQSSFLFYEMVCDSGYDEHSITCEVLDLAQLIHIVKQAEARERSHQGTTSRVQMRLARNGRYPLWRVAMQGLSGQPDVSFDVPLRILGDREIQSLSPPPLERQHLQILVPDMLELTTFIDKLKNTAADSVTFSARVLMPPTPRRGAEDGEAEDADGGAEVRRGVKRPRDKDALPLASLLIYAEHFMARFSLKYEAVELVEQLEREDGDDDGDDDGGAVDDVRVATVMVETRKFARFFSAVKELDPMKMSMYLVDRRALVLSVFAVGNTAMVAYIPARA

Assays:
[1] = molecular target: LmRad1 (L. major (endogenous in L. major LT252)) (UniProt Q4QD01); experiment: co-IP; extract of LmHus1-12xMyc-expressing L. major cells, IP with mouse anti-LmRad1 serum (pre-immune serum as control) on Dynabeads; Buffer A (50 mM Tris pH 9.0, 400 mM KCl, 1% NP40), ~4 h at 4°C; western blot with anti-LmRad9, anti-Myc and anti-LmRad1
[2] = molecular target: C-terminally 12xMyc tagged LmHus1 (LmHus1-12xMyc) (L. major) (UniProt Q4QBE5); experiment: co-IP; extract of LmHus1-12xMyc-expressing L. major cells (WT cells as control), IP with mouse anti-Myc monoclonal antibody on Dynabeads; Buffer A (50 mM Tris pH 9.0, 400 mM KCl, 1% NP40), ~4 h at 4°C; western blot with anti-LmRad9, anti-LmRad1 and anti-Myc

| Substance | binding [1] | binding [2] |
| --- | --- | --- |
| C-terminally 12xMyc tagged LmHus1 (LmHus1-12xMyc) (from UniProt Q4QBE5) | binds |  |
| LmRad1 (from UniProt Q4QD01) |  | binds |
